Assay results from article PMC8007109.
These are yes or no findings as the source states them, for the method shown.

T1: NUBP1 construct restricted to residues 38-320 (human) (UniProt P53384)
T1 sequence: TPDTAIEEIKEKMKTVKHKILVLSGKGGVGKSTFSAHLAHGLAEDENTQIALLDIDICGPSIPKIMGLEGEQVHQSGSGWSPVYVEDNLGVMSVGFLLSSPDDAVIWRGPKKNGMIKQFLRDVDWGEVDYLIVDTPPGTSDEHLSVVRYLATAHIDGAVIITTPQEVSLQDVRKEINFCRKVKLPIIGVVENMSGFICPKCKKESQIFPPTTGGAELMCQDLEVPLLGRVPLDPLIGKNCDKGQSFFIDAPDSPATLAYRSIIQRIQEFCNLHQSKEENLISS


Experiments:
[1] = biological target: NUBP1-C235A/C238A mutant (human) (UniProt P53384); experiment: SEC; analytical gel filtration, Superdex 200 10/300 Increase; monomeric apo proteins chemically reconstituted anaerobically with up to 12-fold excess of FeCl3 and Na2S, 5 mM DTT; both purified
[2] = biological target: NUBP1-C235A/C238A mutant (human) (UniProt P53384); experiment: SEC; analytical gel filtration, Superdex 200 10/300 Increase; proteins as purified (anaerobically, wtNUBP1 also aerobically); degassed 50 mM phosphate pH 7.0, 200 mM NaCl, 5 mM DTT; both purified
[3] = biological target: NUBP1-C235A/C238A mutant (human) (UniProt P53384); experiment: SEC; analytical gel filtration, Superdex 200 10/300 Increase; purified proteins after overnight incubation at room temperature with 100 mM pyridine-2,6-dicarboxylic acid (PDC, metal chelator), 25 mM MOPS pH 7.0; both purified
[4] = biological target: T1, NUBP1 construct restricted to residues 38-320 (human); experiment: pull-down; His6-tagged NUBP1 species and untagged [2Fe-2S]2-GLRX3_(2)-GS4 incubated 1 h at room temperature, anaerobic, 5 mM GSH, 40 mM sodium phosphate pH 8.0, 400 mM NaCl, 5 mM imidazole; loaded on His GraviTrap, eluted with 400 mM imidazole; fractions checked by SDS-PAGE; both purified

binding [1]	binding [2]	binding [3]	binding [4]	Binder
no binding	no binding	no binding	–	NUBP1-C235A/C238A mutant (protein, UniProt P53384 1-320) MEEVPHDCPGADSAQAGRGASCQGCPNQRLCASGAGATPDTAIEEIKEKMKTVKHKILVLSGKGGVGKSTFSAHLAHGLAEDENTQIALLDIDICGPSIPKIMGLEGEQVHQSGSGWSPVYVEDNLGVMSVGFLLSSPDDAVIWRGPKKNGMIKQFLRDVDWGEVDYLIVDTPPGTSDEHLSVVRYLATAHIDGAVIITTPQEVSLQDVRKEINFCRKVKLPIIGVVENMSGFIAPKAKKESQIFPPTTGGAELMCQDLEVPLLGRVPLDPLIGKNCDKGQSFFIDAPDSPATLAYRSIIQRIQEFCNLHQSKEENLISS
–	–	–	no binding	[2Fe–2S]2-GLRX3_(2)-GS4 (dimeric cluster-bridged human glutaredoxin-3) (protein, UniProt O76003 1-335) MAAGAAEAAVAAVEEVGSAGQFEELLRLKAKSLLVVHFWAPWAPQCAQMNEVMAELAKELPQVSFVKLEAEGVPEVSEKYEISSVPTFLFFKNSQKIDRLDGAHAPELTKKVQRHASSGSFLPSANEHLKEDLNLRLKKLTHAAPCMLFMKGTPQEPRCGFSKQMVEILHKHNIQFSSFDIFSDEEVRQGLKAYSSWPTYPQLYVSGELIGGLDIIKELEASEELDTICPKAPKLEERLKVLTNKASVMLFMKGNKQEAKCGFSKQILEILNSTGVEYETFDILEDEEVRQGLKAYSNWPTYPQLYVKGELVGGLDIVKELKENGELLPILRGEN
